Measurements taken from paper PMC5766157.
These are yes or no findings as the source states them, for the method shown. In cells and extracts the contact can be indirect. Some binding calls cover weakened binding; strength is not graded here. Where a sequence is shown, tags or fusion partners need not be part of it.

Chains of the proteins cited; added tags and fusions are not shown.
UniProt P13864: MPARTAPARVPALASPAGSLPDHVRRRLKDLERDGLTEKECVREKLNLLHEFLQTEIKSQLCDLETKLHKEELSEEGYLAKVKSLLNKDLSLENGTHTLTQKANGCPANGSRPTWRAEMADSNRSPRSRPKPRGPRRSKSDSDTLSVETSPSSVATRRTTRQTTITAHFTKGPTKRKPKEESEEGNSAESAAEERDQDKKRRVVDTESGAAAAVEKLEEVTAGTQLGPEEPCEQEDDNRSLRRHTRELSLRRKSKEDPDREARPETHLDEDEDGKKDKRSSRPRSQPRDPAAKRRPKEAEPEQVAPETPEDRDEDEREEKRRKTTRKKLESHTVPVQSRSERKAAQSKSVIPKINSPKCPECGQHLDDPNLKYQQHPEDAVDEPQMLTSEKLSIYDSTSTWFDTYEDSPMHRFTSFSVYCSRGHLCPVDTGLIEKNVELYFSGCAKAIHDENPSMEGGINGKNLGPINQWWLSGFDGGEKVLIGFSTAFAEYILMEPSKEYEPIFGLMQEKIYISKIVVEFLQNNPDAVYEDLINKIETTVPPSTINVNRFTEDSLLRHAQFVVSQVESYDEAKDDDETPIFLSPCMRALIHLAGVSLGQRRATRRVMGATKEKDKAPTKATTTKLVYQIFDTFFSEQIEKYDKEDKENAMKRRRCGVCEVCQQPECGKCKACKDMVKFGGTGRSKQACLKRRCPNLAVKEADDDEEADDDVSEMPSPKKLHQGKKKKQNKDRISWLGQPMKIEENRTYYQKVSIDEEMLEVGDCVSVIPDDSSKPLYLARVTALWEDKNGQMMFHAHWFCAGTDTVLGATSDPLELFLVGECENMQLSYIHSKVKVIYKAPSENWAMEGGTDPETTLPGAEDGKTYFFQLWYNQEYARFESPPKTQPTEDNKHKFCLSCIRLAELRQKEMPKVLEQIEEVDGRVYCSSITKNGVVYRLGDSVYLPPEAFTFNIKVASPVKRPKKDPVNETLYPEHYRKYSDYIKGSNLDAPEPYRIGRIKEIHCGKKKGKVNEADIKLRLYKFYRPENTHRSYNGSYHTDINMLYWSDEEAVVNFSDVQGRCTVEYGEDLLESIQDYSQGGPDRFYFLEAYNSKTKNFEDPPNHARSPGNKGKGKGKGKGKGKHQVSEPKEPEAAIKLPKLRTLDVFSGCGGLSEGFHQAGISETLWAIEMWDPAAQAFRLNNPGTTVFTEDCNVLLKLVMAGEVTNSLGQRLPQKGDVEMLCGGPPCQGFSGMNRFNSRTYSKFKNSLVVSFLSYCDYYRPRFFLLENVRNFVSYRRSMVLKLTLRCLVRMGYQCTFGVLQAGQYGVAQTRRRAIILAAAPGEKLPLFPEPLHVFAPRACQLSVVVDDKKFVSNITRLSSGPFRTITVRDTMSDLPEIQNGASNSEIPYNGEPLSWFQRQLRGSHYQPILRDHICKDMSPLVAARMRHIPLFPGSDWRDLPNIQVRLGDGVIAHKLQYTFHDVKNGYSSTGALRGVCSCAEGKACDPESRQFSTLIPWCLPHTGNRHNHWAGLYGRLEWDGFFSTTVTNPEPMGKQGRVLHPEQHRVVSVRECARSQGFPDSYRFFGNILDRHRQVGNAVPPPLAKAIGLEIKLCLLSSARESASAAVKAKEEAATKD

Biological target: T1, epitope-tagged DROSHA from Drosha^Tag/Tag ES cells (mouse (endogenous in ES cells)) (UniProt Q5HZJ0)
T1 sequence: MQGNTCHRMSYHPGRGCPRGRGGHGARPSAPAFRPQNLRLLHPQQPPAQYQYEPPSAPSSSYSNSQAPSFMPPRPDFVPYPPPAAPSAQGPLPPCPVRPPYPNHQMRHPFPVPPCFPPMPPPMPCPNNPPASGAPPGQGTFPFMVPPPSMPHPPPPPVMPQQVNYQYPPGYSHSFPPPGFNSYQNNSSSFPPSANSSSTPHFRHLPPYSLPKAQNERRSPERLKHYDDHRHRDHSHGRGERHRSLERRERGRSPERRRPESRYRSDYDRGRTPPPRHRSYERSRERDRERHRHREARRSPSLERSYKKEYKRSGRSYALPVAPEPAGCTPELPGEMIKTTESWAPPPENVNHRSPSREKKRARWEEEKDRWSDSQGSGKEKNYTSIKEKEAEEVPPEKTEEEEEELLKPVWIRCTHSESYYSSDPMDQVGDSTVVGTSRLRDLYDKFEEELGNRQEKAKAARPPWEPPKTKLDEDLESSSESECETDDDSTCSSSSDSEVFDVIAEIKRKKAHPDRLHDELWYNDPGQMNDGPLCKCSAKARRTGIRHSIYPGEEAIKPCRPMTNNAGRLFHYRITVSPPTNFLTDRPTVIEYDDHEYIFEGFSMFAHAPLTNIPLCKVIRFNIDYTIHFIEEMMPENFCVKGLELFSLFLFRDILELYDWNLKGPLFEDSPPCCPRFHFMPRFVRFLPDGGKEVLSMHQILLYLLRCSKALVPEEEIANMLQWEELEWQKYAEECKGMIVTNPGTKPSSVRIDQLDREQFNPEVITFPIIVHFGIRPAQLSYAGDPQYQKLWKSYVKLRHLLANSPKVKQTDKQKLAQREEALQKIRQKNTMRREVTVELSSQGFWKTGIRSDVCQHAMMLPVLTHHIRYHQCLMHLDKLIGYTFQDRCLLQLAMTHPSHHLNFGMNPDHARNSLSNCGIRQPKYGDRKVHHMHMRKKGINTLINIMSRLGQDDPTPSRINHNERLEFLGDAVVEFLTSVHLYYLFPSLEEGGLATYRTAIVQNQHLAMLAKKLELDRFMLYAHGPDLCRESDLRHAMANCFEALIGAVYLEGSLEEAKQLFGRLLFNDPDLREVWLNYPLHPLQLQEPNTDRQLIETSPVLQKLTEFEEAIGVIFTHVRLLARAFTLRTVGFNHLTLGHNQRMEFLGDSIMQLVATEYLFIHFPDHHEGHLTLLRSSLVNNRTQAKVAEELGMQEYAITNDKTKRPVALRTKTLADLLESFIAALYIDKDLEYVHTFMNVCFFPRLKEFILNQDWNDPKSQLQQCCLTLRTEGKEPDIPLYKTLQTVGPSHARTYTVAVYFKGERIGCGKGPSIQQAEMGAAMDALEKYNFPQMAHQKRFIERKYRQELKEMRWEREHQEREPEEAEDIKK
Assay: co-IP; anti-FLAG M2 magnetic beads on sonicated ES cell lysates (20 mM Tris-HCl pH 7.4, 200 mM NaCl, 2.5 mM MgCl2, 0.05% Tween-20), then western blot

binding: binds
Substance: DNMT1 (DNA methyltransferase 1), untagged (from UniProt P13864 1-1620) (enzyme)
